Results are given in words; binding and its absence hold for the method and conditions named. For some assays here: Binding seen in cells or lysates may run through a third protein. Some binding calls cover weakened binding; strength is not graded here.
How the values were obtained:
[1] = target: Aiolos-(FLAG) protein (mouse) (UniProt O08900); assay: co-immunoprecipitation from transfected 293T cells, anti-FLAG IP, Helios Western
FLAG-Hel-1 (mouse) = FLAG-Hel-1 (mouse) (UniProt P81183); assay: as above
[2] = target: Aio-500 bait (C-terminal 149 amino acids of Aiolos fused in frame to the LexA DNA binding domain in pLex202) (mouse); assay: yeast two-hybrid, B42 prey against LexA bait, rate of blue colour on X-gal plates
[3] = target: Aio-500 bait (C-terminal 149 amino acids of Aiolos fused in frame to the LexA DNA binding domain in pLex202) (mouse); assay: yeast two-hybrid

By UniProt entry, the sequences of proteins in these tests, tags left out. Where a name states a change or a piece, a line headed by the entry shows the natural chain unless it says otherwise.
UniProt O08900: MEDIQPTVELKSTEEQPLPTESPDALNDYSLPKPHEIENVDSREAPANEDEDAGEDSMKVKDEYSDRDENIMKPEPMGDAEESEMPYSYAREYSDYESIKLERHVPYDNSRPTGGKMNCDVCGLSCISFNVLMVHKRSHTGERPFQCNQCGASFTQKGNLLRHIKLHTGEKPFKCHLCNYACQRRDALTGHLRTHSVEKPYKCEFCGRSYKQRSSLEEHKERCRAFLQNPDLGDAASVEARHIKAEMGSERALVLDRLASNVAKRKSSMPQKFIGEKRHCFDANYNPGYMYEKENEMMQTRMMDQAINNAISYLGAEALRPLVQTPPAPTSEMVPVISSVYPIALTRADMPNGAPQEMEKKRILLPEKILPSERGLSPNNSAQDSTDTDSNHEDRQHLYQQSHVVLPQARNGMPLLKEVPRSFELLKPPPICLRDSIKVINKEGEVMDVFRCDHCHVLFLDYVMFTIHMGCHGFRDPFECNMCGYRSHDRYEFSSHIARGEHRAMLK
UniProt P81183: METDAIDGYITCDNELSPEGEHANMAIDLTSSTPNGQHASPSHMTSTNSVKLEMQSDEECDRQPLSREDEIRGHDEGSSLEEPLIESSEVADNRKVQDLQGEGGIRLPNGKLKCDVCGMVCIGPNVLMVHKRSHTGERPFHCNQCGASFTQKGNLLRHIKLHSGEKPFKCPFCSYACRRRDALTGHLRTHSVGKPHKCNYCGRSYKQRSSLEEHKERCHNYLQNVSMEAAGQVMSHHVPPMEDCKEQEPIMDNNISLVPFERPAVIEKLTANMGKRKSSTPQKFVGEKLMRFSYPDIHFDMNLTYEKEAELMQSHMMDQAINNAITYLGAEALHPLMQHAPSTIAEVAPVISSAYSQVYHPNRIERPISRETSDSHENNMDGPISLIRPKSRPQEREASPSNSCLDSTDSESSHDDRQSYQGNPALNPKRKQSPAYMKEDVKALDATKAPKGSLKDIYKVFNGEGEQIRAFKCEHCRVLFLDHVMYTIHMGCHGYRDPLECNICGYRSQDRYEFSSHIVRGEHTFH

binding [1] | binding (FLAG-Hel-1 (mouse)) | binding [2] | binding [3] | Substance
binds |  |  |  | Helios isoform Hel-1 (from UniProt P81183 1-526)
binds | binds |  |  | Helios isoform Hel-2 (from UniProt P81183 1-526)
 |  | binds | binds | full length Aiolos prey (B42 transcriptional activation domain fused in frame to full length Aiolos) (from UniProt O08900 1-507)

Reference: patent US20050130265A1
